Results on 32 compounds are retold here after PubChem BioAssay AID2685 (National Center for Advancing Translational Sciences (NCATS), 2010).

A short description of the assay: qHTS Assay for Lipid Storage Modulators in Drosophila S3 Cells.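 For cell number change: cells counted by Cell Tracker Red CMTPX staining in the red channel.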 To be noted: BODIPY lipid droplet fluorescence, 18-24 h; for cell number change: measured here: cell count max response, cells fed with added oleic acid. From the text: NIH Molecular Libraries Probe Production Centers Network [MLPCN] NIH Chemical Genomics Center [NCGC] MLPCN Grant: 1 R03 MH085686-01 Assay Submitter (PI): Beller, Mathias; Max-Planck-Institut fur Biophysikalische Chemie NCGC Assay Overview: Storing lipids as a reservoir for energy or the anabolism of elementary metabolites is a common feature of probably all cells and is conserved from bacteria to humans. The universal cellular lipid storage organelle is the so-called lipid storage droplet (LD). Although ubiquitous, LDs share a simple structure composed of a hydrophobic core that harbors the storage lipids, which is shielded by a droplet-specific phospholipid monolayer to which proteins are attached. The current model of LD biogenesis involves an incorporation of the lipid core into the membrane leaflets of the endoplasmic reticulum (ER) followed by a subsequent budding-like maturation of a LD, which ultimately pinches off. Once released, LD volume can increase by localized lipogenesis or fusion of existing droplet. Storage lipids are re-mobilized enzymatically by lipase activity. Lipase regulation in the adipocyte is heavily studied and involves multiple components including catecholamine signaling, the LD-associated proteins Perilipin and comparative gene identification (CGI-58) and at least two lipases named hormone sensitive lipase (HSL) and adipocyte triglyceride lipase (ATGL). LD regulation outside of the adipocyte is poorly understood and only few components are known. However, there is an urgent need to learn more about ectopic fat depots as mislocalized storage of lipids, for example in the liver or muscle, is an eminent health problem associated with insulin resistance or the metabolic syndrome. We developed a laser-scanning cytometer assay to enable 1,536-well screening and combined the results of the small molecules screen with an RNAi database based on lipid storage.
Triacsin C (Sigma-Aldrich T-4540), an inhibitor of long-chain fatty acyl CoA synthetase that blocks synthesis of triglycerides, was used as a positive control for lipid under-storage. A total of 23 nL of compound solution of different concentrations were transferred to the assay plates using a Kalypsys pin tool equipped with a 1,536-pin array containing 10-nL slotted pins (FP1S10, 0.457-mm diameter, 50.8 mm long; V&P Scientific). One microliter of oleic acid (400 uM) was added, and the plate was lidded with stainless steel rubber gasket lined lids containing pinholes. […] Fluorescence was detected by excitation of the fluorophores with a 488-nm laser on an Acumen Explorer (TTP Lab Tech). The total intensity in channel 2 (500-530 nm) reflected lipid droplet accumulation. Cells were detected using channel 3 (575-640 nm) with 5-um width and 100-um depth filters. The ratio of the number of objects in PMT channel 2 over the number of objects in PMT channel 3 was also calculated. Percent activity was computed relative to an internal control (100% inhibited lipid droplet deposition due to the presence of 20 uM Triacsin C), which was added to 32 wells/plate.

[1] abbreviates: measured here: lipid fluorescence (Fed channel) AC50, cells fed with added oleic acid.
Setting [2] is: measured here: cell number channel AC50, cells fed with added oleic acid.

Some of the results follow. Shown are side measurements of this screen, not its main read-out; they come without a call. Most of these compounds were active or inconclusive in the main read-out, so they are no random draw. Potencies come from curve fits of mixed quality, noted in brackets.

A word on the AC50: it is the concentration at which the activity in the assay is half-maximal. `C=CCn1c(SCC(=O)N2CCCCC2)nnc1-c1ccncc1`: the cell number change is 23%. For the same compound, under setting [1], the AC50 was 4.11 nM [rising, full curve, poor fit]. Regarding `CCCCn1c(SCC2CCCCO2)nc2cc(S(N)(=O)=O)ccc21` (stereo not given), the cell number change was -24.9%. `Cc1ccc(N2C(=NC(=O)c3ccccc3)SC3CS(=O)(=O)CC32)cc1` (stereo not given): the cell number change was 2.93%. Moreover, the AC50 under setting [1] is 4110 nM [falling, single point].

Regarding `CC(Oc1ccc(-c2ccccc2)cc1)C(=O)N1CCOCC1` (stereo not given), the AC50 under setting [1] was 29.1 nM [falling, full curve, poor fit]. As to `O=C(c1ccc2c(=O)n(Cc3ccc4c(c3)OCO4)c(=O)[nH]c2c1)N1CCN(c2ccccc2)CC1`, the cell number change was -11.2%. Under setting [1], the AC50 is 2590 nM [falling, full curve, poor fit]. With `CC(=O)c1cccc(NC(=O)c2cc(-c3ccco3)on2)c1`, the cell number change is 13.8%. Besides, the AC50 under setting [1] was 820 nM [rising, full curve]. For the compound `Cc1ccc(OCCCC(=O)Nc2ccc3c(c2)OCO3)cc1`, the cell number change was -6.9%.

As to `O=C(O)c1c[nH]c2ccc(S(=O)(=O)N3CCOCC3)cc12`, the cell number change was -36.8%. Further, the half-maximal activity concentration (AC50) under setting [2] is 1300 nM [falling, full curve]. Regarding `COc1ccccc1C(=O)NNC(=O)C(=O)Nc1cccc(Cl)c1C`, the cell number change turned out to be 56.6%. In addition, the AC50 under setting [2] is 32600 nM [rising, single point]. Also, under setting [1], the AC50 is 35500 nM [falling, single point]. Consider `CC1Cc2ccccc2N1C(=O)CCS(=O)(=O)c1ccc2c(c1)NC(=O)CS2` (stereo not given), for which the cell number change is -27.4%. Still for that read-out and setting: the same measure for `C=CCC1(CC=C)CCCN1C(=O)Cn1nnnc1CN(C)C(C)C`: 14.8%. Regarding `CCOC(=O)c1sc(=NC(=O)CCS(=O)(=O)c2ccccc2)n(C)c1C`, the cell number change amounted to 33.6%. Besides, the AC50 under setting [1] was 20600 nM [rising, partial curve]. For the compound `Cc1ccccc1OCCSc1nnc(C)n1-c1ccccc1`, the AC50 runs as follows: under setting [2], 920 nM [rising, full curve]; under setting [1], 517 nM [rising, partial curve, poor fit]. Turning to `Cc1cc(C)c(S(=O)(=O)N(CC(=O)O)CC(=O)O)c(C)c1`, the cell number change was found to be 7.32%. Further, under setting [1], the AC50 is 29100 nM [falling, single point].

Consider `Cc1ccc(Cl)cc1N1CCN(C(=O)C2CCCN(S(=O)(=O)c3cnc[nH]3)C2)CC1` (stereo not given), for which the cell number change is -5.83%. Besides, the AC50 under setting [1] is 29100 nM [falling, single point]. With `COc1ccc(-c2nnc(NC(=O)c3ccc([N+](=O)[O-])o3)o2)c(OC)c1`, the cell number change was determined as 3.45%. Also, the AC50 under setting [1] is 2310 nM [falling, partial curve, poor fit].

Regarding `CCN(CC)S(=O)(=O)c1cccc(-c2nnc(SCc3nc4ccccc4s3)o2)c1`, the AC50 under setting [2] is 2910 nM [rising, single point] and the concentration at half-maximal activity (AC50) under setting [1] is 13000 nM [rising, partial curve].

As for `Cn1c(SCC(=O)Nc2ccc3c(c2)OCCO3)nnc1C(F)(F)F`, the cell number change is 3.26%. The AC50 under setting [1] was 231 nM [rising, partial curve, poor fit]. For `O=C(/C=C/c1ccc([N+](=O)[O-])cc1)Nc1ncc([N+](=O)[O-])s1`, the cell number change turned out to be 1.5%. The AC50 under setting [2] is 29.1 nM [rising, full curve, poor fit]. As to `Cc1ccsc1CNn1cnnc1SCc1ccccc1F`, the cell number change stood at 47.9%. For the same compound, the AC50 under setting [2] was 29100 nM [rising, partial curve, poor fit]. Regarding `COC(=O)[C@H](CCSC)NC(=O)c1cc2c(cn1)[nH]c1ccccc12`, the cell number change came out at 7.8%. Besides, under setting [2], the AC50 is 2060 nM [rising, single point]. For the compound `O=C(NC1CC2CCCC(C1)N2C(=O)Nc1ccc(F)cc1)c1ccccc1` (stereo not given), the cell number change is 8.75%. Consider `O=C(CCS(=O)(=O)c1cccc2nonc12)NCCc1ccccc1Cl`, for which the cell number change was -3.85%. Moreover, under setting [1], the AC50 is 2060 nM [rising, partial curve]. In the case of `CN1CCCN(C(=O)c2cc(=O)[nH]c3ccccc23)c2nc3ccccc3nc21`, the AC50 under setting [1] is 6510 nM [rising, partial curve]. Turning to `COc1ccc(NC(=O)Nc2cccc([N+](=O)[O-])c2)cc1Cl`, the cell number change is -55%. Besides, the AC50 under setting [2] was 18400 nM [falling, single point].

With `O=C1C2C3C=CC(C3)C2C(=O)N1CCc1ccccc1` (stereo not given), the cell number change was determined as 13.2%. Further, the half-maximal activity concentration (AC50) under setting [1] was 65.1 nM [rising, full curve, poor fit].

Turning to `CC(=O)N1CCC(=NNC(=O)c2cccs2)CC1`, under setting [1], the AC50 is 116 nM [falling, full curve, poor fit].

Consider `O=C(NC1CCCCC1)C1(c2ccccc2)CC1(Cl)Cl` (stereo not given), for which the cell number change is 11.8%. Further, the AC50 under setting [2] is 6510 nM [rising, single point]. As for `COc1cccc(CN(C(=O)Cc2c[nH]c3ccccc23)C(C(=O)NC2CCCCC2)c2cccs2)c1` (stereo not given), under setting [2], the AC50 was 6510 nM [rising, single point].

As for `COc1cc(NC(=O)Cc2ccc([N+](=O)[O-])cc2)c(C(=O)O)cc1OC`, the cell number change is -5.66%. With `O=C(c1cc(-c2ccncc2)nc2ccccc12)N1CCN(c2ccccn2)CC1`, the cell number change is -18.7%. For the compound `OCc1ccccc1CNCc1ccccc1`, the cell number change was -8.4%. The AC50 under setting [2] is 1160 nM [rising, partial curve, poor fit]. In addition, the AC50 under setting [1] is 92 nM [falling, full curve, poor fit].
